In assay [1] the target is GFP-tagged triple-mutated NEMO-S8, 17, 31A (human) (UniProt Q9Y6K9). The assay can be described thus: co-IP; HEK293 cells transfected with GFP-tagged wild-type or S8, 17, 31A NEMO; anti-GFP immunoprecipitation (GFP Isolation Kit, Miltenyi); resting or TNFα-stimulated (10 ng/ml) cells; for p47, co-transfected with HA-tagged ubiquitin species; immunoblotting.
The target of assay [2] is GFP-tagged wild-type NEMO (human), Q9Y6K9. The assay is described as above. As to conditions: remark: other sources report otherwise.

The chains behind the UniProt entries cited, without tags or fusion partners. Where a name states a change or a piece, a line headed by the entry shows the natural chain unless it says otherwise. A line that says so, or that is headed by a name, gives the form on record, which may keep a tag or linker.
UniProt Q9Y6K9: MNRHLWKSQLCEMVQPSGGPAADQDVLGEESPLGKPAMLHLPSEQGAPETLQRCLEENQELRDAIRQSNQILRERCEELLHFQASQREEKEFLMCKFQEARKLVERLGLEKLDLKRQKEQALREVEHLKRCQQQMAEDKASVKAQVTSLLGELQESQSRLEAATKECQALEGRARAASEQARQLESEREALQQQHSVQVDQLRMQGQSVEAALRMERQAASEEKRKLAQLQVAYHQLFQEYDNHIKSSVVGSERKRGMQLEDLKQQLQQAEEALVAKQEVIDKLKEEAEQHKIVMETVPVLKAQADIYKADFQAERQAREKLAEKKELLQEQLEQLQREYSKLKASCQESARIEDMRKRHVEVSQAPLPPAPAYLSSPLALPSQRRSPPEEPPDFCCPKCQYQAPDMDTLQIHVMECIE
GFP-tagged triple-mutated NEMO-S8, 17, 31A (Q9Y6K9, form named): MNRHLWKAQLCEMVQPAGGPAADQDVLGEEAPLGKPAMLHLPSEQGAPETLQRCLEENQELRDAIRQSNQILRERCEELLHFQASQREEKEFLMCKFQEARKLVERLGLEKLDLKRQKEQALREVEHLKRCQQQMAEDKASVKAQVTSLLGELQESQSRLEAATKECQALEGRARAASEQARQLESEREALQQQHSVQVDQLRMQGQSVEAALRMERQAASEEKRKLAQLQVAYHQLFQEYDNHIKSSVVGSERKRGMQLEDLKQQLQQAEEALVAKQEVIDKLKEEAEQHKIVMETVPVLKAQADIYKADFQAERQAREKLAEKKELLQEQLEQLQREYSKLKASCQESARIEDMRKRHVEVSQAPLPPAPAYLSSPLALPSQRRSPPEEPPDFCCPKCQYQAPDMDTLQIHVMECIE

Results are given in words; binding and its absence hold for the method and conditions named. Binding seen in cells or lysates may run through a third protein. Some entries that bind do so weakly or less than the wild type.

B1: p47, endogenous (protein, UniProt Q9UNZ2 1-370)
chain: MAAERQEALREFVAVTGAEEDRARFFLESAGWDLQIALASFYEDGGDEDIVTISQATPSSVSRGTAPSDNRVTSFRDLIHDQDEDEEEEEGQRFYAGGSERSGQQIVGPPRKKSPNELVDDLFKGAKEHGAVAVERVTKSPGETSKPRPFAGGGYRLGAAPEEESAYVAGEKRQHSSQDVHVVLKLWKSGFSLDNGELRSYQDPSNAQFLESIRRGEVPAELRRLAHGGQVNLDMEDHRDEDFVKPKGAFKAFTGEGQKLGSTAPQVLSTSSPAQQAENEAKASSSILIDESEPTTNIQIRLADGGRLVQKFNHSHRISDIRLFIVDARPAMAATSFILMTTFPNKELADESQTLKEANLLNAVIVQRLT
As for B1, the binding entry in assay [1] is “binds”.

B2: IKKα, endogenous, O15111 1-745 (enzyme)
chain: MERPPGLRPGAGGPWEMRERLGTGGFGNVCLYQHRELDLKIAIKSCRLELSTKNRERWCHEIQIMKKLNHANVVKACDVPEELNILIHDVPLLAMEYCSGGDLRKLLNKPENCCGLKESQILSLLSDIGSGIRYLHENKIIHRDLKPENIVLQDVGGKIIHKIIDLGYAKDVDQGSLCTSFVGTLQYLAPELFENKPYTATVDYWSFGTMVFECIAGYRPFLHHLQPFTWHEKIKKKDPKCIFACEEMSGEVRFSSHLPQPNSLCSLVVEPMENWLQLMLNWDPQQRGGPVDLTLKQPRCFVLMDHILNLKIVHILNMTSAKIISFLLPPDESLHSLQSRIERETGINTGSQELLSETGISLDPRKPASQCVLDGVRGCDSYMVYLFDKSKTVYEGPFASRSLSDCVNYIVQDSKIQLPIIQLRKVWAEAVHYVSGLKEDYSRLFQGQRAAMLSLLRYNANLTKMKNTLISASQQLKAKLEFFHKSIQLDLERYSEQMTYGISSEKMLKAWKEMEEKAIHYAEVGVIGYLEDQIMSLHAEIMELQKSPYGRRQGDLMESLEQRAIDLYKQLKHRPSDHSYSDSTEMVKIIVHTVQSQDRVLKELFGHLSKLLGCKQKIIDLLPKVEVALSNIKEADNTVMFMQGKRQKEIWHLLKIACTQSSARSLVGSSLEGAVTPQTSAWLPPTSAEHDHSLSCVVTPQDGETSAQMIEENLNCLGHLSTIIHEANEEQGNSMMNLDWSWLTE
In the case of B2, the binding entry in assay [2] was “binds”.

The values above are taken from article PMC5144080.
